Measured values taken from PMC12396675.
These are yes or no findings as the source states them, for the method shown. In cells and extracts the contact can be indirect. Some results given as binding are weak or reduced against the parent protein; the word gives no strength.

Sequences of proteins named here, by UniProt entry; tags and fusion partners are left off.
UniProt Q8R4B8: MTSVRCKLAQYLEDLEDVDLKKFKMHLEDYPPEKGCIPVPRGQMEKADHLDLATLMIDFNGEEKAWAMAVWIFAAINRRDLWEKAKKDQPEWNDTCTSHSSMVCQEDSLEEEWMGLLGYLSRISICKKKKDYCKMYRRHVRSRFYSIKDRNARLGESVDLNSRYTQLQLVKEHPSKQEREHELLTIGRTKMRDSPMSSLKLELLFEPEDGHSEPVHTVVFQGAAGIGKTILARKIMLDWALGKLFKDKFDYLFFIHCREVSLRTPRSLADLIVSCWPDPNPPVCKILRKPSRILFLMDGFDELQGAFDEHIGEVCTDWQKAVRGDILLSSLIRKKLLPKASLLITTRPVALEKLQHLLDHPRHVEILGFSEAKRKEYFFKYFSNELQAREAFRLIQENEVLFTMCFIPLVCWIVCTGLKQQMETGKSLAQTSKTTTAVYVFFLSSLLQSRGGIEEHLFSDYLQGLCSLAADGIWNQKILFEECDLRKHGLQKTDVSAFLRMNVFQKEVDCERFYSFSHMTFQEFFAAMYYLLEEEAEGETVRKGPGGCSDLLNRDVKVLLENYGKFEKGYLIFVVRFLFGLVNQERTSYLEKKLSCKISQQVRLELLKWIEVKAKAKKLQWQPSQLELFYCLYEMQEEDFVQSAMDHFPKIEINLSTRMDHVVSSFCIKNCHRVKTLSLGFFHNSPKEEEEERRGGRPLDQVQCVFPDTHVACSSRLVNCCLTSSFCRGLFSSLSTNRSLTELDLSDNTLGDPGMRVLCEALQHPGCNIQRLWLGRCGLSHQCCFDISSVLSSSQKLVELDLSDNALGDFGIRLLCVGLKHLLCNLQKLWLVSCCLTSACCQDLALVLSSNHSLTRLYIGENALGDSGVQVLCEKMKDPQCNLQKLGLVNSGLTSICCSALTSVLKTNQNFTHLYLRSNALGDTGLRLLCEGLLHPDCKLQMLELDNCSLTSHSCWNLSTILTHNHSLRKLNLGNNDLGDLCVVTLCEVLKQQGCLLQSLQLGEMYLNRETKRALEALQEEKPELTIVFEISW

Molecular target: T1, receptor-interacting protein kinase 1 (mouse (endogenous in left ventricle)) (UniProt Q60855)
T1 sequence: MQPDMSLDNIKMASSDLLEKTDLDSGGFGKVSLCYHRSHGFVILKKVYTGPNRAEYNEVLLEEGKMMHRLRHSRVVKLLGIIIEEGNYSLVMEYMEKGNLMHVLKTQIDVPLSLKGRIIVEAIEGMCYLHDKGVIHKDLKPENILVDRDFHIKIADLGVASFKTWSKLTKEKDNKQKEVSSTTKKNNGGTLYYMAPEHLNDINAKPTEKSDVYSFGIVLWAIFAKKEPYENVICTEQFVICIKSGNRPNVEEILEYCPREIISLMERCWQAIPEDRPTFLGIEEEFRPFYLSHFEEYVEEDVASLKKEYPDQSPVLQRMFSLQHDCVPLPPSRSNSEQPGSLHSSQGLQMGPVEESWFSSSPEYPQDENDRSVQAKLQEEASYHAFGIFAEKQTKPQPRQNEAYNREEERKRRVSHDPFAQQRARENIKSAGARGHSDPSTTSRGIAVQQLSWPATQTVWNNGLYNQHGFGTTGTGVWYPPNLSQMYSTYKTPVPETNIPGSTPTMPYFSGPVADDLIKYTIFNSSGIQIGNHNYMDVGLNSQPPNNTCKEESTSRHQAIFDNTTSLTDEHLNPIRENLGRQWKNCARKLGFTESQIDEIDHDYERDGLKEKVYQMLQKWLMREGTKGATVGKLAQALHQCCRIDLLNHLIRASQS
Experiment: co-IP; mouse myocardial (left-ventricular) tissue lysed in RIPA buffer with protease and phosphatase inhibitors; 1 μg primary antibody (TGFBR1, TAK1 or RIPK1) or IgG, 4°C; protein A/G beads overnight; western blot; groups of mice: control, shTGFBR1 + control, HFpEF (HFD + L-NAME), shTGFBR1 + HFpEF; which antibody precipitated in which panel is not told

NLRP3 (from UniProt Q8R4B8 1-1033) was tested, and the binding was “binds”.
